# Results are given in words; binding and its absence hold for the method and conditions named. In cells and extracts the contact can be indirect. Some binding calls cover weakened binding; strength is not graded here. For some assays here: Where a sequence is shown, tags or fusion partners need not be part of it.
# Chains of the proteins cited; added tags and fusions are not shown.
# UniProt P28370: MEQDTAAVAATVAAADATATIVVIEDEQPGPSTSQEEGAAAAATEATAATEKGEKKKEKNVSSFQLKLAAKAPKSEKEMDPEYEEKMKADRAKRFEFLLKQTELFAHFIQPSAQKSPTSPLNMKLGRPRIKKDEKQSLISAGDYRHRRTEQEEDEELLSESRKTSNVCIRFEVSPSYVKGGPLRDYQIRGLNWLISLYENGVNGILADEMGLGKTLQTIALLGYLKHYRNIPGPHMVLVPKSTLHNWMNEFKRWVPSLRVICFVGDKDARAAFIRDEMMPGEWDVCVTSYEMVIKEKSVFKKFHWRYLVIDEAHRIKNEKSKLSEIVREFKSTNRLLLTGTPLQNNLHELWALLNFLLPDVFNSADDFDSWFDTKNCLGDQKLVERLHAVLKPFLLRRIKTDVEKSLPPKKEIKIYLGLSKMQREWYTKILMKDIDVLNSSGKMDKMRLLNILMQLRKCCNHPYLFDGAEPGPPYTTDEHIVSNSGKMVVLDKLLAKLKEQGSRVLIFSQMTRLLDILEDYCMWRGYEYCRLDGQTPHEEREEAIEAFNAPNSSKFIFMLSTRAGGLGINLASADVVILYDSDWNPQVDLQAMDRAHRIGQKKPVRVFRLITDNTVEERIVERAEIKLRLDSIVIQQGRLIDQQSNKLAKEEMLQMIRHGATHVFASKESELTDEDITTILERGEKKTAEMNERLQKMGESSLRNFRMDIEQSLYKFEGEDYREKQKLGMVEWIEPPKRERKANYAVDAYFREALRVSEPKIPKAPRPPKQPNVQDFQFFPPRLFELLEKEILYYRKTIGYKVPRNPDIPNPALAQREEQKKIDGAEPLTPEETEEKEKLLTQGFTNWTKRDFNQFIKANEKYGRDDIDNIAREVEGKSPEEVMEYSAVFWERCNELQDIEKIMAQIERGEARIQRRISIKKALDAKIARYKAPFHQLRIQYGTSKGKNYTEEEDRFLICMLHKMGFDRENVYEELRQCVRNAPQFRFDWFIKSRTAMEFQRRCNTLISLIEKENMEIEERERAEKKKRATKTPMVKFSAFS
# UniProt P13010: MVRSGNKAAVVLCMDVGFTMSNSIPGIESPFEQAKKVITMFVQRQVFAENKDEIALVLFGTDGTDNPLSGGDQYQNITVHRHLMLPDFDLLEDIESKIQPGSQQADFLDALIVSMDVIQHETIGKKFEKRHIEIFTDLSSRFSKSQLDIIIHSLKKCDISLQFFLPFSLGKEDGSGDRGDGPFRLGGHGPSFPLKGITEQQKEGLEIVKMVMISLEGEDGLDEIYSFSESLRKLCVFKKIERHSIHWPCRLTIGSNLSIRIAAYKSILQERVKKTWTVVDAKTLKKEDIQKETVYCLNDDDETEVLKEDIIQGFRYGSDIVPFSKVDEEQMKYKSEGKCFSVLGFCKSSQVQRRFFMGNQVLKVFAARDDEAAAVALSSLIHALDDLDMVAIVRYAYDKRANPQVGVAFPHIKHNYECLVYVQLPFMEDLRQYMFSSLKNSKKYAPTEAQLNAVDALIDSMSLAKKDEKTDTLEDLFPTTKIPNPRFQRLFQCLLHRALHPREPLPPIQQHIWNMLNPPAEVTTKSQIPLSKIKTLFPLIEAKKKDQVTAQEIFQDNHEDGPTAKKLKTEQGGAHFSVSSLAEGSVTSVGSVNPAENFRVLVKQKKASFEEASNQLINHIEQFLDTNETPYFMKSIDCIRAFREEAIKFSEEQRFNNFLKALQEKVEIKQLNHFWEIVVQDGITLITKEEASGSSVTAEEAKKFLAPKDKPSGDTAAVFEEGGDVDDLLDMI
# UniProt Q13200: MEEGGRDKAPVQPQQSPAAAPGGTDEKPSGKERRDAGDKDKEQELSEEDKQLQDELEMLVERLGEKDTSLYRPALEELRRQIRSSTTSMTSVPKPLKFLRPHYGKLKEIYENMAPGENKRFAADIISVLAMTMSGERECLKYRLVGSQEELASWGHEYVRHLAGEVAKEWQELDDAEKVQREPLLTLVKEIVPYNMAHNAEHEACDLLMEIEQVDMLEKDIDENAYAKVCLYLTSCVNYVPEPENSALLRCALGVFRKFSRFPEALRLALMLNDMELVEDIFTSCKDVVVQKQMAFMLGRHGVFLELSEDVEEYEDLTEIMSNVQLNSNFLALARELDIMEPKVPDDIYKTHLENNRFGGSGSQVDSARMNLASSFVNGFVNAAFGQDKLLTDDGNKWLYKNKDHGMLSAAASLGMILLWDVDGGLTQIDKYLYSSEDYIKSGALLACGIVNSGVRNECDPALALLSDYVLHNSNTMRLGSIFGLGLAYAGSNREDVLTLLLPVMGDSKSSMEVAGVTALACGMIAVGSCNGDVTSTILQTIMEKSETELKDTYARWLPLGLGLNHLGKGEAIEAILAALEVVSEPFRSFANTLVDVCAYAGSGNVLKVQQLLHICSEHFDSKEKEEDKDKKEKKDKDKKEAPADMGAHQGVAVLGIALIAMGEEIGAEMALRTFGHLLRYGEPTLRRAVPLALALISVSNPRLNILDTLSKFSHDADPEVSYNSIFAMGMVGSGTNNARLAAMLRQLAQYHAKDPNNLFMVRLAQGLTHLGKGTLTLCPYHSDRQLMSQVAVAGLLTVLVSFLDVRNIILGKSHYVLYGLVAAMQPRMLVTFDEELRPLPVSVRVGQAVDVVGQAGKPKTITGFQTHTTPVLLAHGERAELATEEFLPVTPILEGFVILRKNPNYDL
# UniProt Q03468: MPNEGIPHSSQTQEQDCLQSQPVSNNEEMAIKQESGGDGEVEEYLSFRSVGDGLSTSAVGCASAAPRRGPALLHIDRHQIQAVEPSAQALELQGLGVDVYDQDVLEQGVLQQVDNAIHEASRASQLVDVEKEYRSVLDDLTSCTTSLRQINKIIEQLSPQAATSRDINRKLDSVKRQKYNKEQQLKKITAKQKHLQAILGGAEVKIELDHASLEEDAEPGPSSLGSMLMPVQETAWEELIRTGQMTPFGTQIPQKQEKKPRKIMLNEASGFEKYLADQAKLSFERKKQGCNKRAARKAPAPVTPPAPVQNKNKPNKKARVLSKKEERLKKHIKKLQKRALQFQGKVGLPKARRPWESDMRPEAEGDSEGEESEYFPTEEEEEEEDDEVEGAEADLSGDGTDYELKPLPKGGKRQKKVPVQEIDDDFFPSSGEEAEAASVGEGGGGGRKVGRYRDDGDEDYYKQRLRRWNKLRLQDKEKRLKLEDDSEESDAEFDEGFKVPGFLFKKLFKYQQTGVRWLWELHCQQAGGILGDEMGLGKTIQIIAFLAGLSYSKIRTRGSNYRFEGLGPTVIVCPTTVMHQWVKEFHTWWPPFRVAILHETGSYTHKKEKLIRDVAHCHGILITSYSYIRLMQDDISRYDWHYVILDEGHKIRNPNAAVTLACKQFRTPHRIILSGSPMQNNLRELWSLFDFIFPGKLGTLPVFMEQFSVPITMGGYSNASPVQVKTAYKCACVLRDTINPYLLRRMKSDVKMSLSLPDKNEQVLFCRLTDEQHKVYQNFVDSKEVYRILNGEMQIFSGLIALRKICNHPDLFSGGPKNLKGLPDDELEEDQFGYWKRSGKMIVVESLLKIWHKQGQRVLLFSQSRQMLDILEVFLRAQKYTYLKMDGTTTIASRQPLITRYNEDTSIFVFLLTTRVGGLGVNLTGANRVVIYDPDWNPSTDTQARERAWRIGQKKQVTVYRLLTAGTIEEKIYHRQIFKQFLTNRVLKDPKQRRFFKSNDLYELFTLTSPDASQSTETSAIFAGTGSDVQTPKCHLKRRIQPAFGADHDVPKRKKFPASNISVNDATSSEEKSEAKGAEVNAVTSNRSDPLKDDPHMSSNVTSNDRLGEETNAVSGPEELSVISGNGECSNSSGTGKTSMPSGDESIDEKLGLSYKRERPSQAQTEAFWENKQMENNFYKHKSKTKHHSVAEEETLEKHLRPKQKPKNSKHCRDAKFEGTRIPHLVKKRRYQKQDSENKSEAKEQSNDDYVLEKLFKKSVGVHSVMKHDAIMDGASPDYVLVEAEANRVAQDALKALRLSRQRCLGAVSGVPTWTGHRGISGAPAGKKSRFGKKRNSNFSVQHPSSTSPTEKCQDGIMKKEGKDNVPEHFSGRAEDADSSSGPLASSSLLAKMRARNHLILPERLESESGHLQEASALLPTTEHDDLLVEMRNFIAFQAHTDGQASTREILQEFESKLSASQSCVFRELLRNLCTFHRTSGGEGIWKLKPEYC
# How the values were obtained:
# Assay in all cases: co-IP; lysates (RIPA buffer) of CSIAN cells co-transfected with Flag-tagged CSB and a Myc-tagged protein, 24 hr post transfection; anti-c-myc agarose overnight; Western blot with anti-Flag
# Myc-tagged HLTF (human) = target: T1, Myc-tagged HLTF (human) (UniProt Q14527)
# T1 sequence: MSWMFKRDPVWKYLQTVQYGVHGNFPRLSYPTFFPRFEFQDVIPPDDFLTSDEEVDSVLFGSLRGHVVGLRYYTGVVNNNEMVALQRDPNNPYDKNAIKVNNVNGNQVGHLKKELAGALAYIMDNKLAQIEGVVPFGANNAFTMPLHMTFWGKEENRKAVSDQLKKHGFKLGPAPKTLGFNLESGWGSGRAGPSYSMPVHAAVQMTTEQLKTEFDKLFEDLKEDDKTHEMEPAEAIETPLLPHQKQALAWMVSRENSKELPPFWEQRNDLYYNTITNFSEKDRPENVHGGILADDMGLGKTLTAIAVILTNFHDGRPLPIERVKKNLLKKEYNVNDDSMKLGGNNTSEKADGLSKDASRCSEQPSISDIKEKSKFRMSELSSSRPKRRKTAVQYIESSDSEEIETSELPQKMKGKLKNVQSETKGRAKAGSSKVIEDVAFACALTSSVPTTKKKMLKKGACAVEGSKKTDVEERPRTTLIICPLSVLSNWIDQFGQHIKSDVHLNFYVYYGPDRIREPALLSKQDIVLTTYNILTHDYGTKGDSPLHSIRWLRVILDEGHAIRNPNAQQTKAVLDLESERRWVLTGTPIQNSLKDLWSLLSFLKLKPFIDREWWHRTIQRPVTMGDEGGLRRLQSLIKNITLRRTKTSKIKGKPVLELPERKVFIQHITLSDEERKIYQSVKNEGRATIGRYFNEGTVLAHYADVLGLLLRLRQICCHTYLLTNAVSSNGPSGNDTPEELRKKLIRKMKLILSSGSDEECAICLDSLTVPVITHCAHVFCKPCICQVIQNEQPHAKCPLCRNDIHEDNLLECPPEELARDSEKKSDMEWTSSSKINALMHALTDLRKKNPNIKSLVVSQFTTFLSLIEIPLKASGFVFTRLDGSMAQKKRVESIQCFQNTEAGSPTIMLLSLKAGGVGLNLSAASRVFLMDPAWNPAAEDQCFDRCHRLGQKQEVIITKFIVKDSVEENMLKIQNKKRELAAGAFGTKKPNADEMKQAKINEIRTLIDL
# [1] = target: Myc-tagged SMARCA1 (human) (UniProt P28370)
# Myc-tagged XRCC5 (human) = Myc-tagged XRCC5 (human) (UniProt P13010)
# Myc-tagged DHX36 (human) = target: T2, Myc-tagged DHX36 (human) (UniProt Q9H2U1)
# T2 sequence: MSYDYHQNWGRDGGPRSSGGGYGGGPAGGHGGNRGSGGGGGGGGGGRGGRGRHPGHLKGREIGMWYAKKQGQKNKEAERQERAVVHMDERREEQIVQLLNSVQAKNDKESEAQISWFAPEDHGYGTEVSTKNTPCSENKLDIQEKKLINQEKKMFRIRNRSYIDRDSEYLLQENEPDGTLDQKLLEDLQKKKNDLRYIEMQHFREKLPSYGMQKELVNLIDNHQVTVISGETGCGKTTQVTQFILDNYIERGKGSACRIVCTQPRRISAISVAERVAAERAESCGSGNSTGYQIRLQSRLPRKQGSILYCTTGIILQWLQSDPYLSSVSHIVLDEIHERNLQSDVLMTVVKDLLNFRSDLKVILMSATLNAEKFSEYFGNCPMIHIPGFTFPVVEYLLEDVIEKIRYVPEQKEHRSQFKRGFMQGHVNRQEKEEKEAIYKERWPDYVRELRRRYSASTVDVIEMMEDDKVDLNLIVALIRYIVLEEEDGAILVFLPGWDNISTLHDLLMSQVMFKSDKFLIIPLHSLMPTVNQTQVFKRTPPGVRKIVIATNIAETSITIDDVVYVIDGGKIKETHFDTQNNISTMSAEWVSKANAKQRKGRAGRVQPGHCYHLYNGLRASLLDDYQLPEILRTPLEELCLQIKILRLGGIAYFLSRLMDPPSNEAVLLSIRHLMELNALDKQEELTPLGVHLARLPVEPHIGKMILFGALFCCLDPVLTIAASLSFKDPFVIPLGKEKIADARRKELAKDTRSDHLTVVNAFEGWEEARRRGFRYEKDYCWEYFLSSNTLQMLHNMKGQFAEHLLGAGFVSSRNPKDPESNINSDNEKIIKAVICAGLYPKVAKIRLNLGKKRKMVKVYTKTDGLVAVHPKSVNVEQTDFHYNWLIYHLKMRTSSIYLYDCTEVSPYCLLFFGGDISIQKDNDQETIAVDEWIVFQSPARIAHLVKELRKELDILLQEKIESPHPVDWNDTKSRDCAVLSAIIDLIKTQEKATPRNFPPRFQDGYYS
# Myc-tagged PSMD2 (human) = Myc-tagged PSMD2 (human) (UniProt Q13200)
substance,measurement,setting,value
Flag-tagged CSB (from UniProt Q03468 1-1493),binding,Myc-tagged HLTF (human),no binding
same,binding,[1],binds
same,binding,Myc-tagged XRCC5 (human),binds
same,binding,Myc-tagged DHX36 (human),binds
same,binding,Myc-tagged PSMD2 (human),no binding
